Record: PubChem BioAssay AID504795 (Drosophila RNAi Screening Center, 2011)
The reagents shown are a selection, not the whole library. 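Every listed dsRNA shows some phenotype; how reagents were selected for listing is not stated.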 A plus sign joins genes that one reagent is predicted to hit. Reagent sequences are not shown.

Purpose: 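Fly genes whose loss alters neurite growth or neural cell form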 (primary screen)
Cell system: primary Drosophila neurons and glia
Reagent: long dsRNA against Drosophila genes, 250 ng dsRNA per well
Timing: one week
Measured: 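Descriptive morphology terms assigned by visual inspection of live automated images of GFP-marked cells, taken one week after adding 250 ng dsRNA per well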

target gene	dsRNA	phenotype seen, replicate 1	phenotype seen, replicate 2
PH4alphaPV	DRSC22400	reduced axon outgrowth	
CG13059	DRSC09942	too many neurite branches	
CG13670	DRSC10029	axon bundles split apart	
Mi-2	DRSC11222	cell fragments present	
CG42594	DRSC18053	too many neurite branches	
ens	DRSC08454	too many neurite branches	
NaPi-III	DRSC10893	fewer cells	
NaPi-III	DRSC10894	fewer cells	fewer cells
CG6962	DRSC16153	too many neurite branches	
Vsx1	DRSC18349	too many neurite branches	
CG17375	DRSC02614	more self-contacts of neurites	
CG4641 (retired record)	DRSC10439	axon bundles split apart	
CG4000	DRSC15535	abnormal cell clusters	
CG4000	DRSC21547	sheet-like cell extensions	
CG3071	DRSC18526	axon bundles split apart	
be	DRSC19945	too many neurite branches	
CG4957	DRSC02793	beaded; swollen axons	
CG4393	DRSC15573	too many neurite branches	
l(3)80Fj	DRSC20989	sheet-like cell extensions	
Orcokinin	DRSC04202	abnormal cell clusters	
brk	DRSC18745	abnormal cell clusters	
CG3961	DRSC10391	abnormal cell clusters	
CR11700 (retired record)	DRSC17794	weaker green signal	
Scp2	DRSC16854	sheet-like cell extensions	
CHKov1	DRSC01696	axon bundles split apart	
hgo	DRSC03544	too many neurite branches	sheet-like cell extensions
CG34281	DRSC14807	axon bundles split apart	
CG3176 + CR18166 + CG32817	DRSC18288	axon bundles split apart	
CG13324	DRSC06361	axon bundles split apart	
Pdp1	DRSC08896	too many neurite branches	
CG13016	DRSC06271	fewer cells	
Jhbp7	DRSC14408	reduced axon outgrowth	
AQP	DRSC06122	abnormal cell clusters	
Nnf1a	DRSC06394	beaded; swollen axons	
Rpt3	DRSC20283	axon bundles split apart	
CG18538	DRSC06765	abnormal cell clusters	
CG17819	DRSC15279	abnormal cell clusters	
RpL7A	DRSC18709	abnormal cell clusters	
dgt3	DRSC04349	axon bundles split apart	
flr	DRSC09787	axon bundles split apart	
Zw	DRSC20303	cell fragments present	

Laid out differently: results already given.
| target gene | dsRNA | phenotype seen, replicate 1 | phenotype seen, replicate 2 |
| --- | --- | --- | --- |
| Vsx1 | DRSC18349 | too many neurite branches | – |
| CG17375 | DRSC02614 | more self-contacts of neurites | – |
| CG4641 (retired record) | DRSC10439 | axon bundles split apart | – |
| CG4000 | DRSC15535 | abnormal cell clusters | – |
| CG4000 | DRSC21547 | sheet-like cell extensions | – |
| CG3071 | DRSC18526 | axon bundles split apart | – |
| be | DRSC19945 | too many neurite branches | – |

The list goes on.
target gene	dsRNA	phenotype seen, replicate 1	phenotype seen, replicate 2
shrb	DRSC07061	cell fragments present	
CG32984	DRSC21602	too many neurite branches	
Vm32E	DRSC03474	axon bundles split apart	
mago	DRSC04703	reduced axon outgrowth	
ringer	DRSC10455	abnormal cell clusters	
mRpS9	DRSC15456	too many neurite branches	
Cyp18a1	DRSC20235	too many neurite branches	
Marc	DRSC06614	axon bundles split apart	
Madm	DRSC12129	axon bundles split apart	
Syn1	DRSC11804	axon bundles split apart	
Edem2	DRSC02877	sheet-like cell extensions	
CG32119	DRSC21462	axon bundles split apart	
Ir75b	DRSC10189	abnormal cell clusters	
Polr1E	DRSC15358	cell fragments present	
CG8860	DRSC07291	abnormal cell clusters	
CG14839	DRSC14963	axon bundles split apart	
RpL23A	DRSC08694	too many neurite branches	
AcCoAS	DRSC22850	axon bundles split apart	
bdwf	DRSC15532	too many neurite branches	
skd	DRSC11898	abnormal cell clusters	axon bundles split apart
CG42843 (retired record)	DRSC01118	abnormal cell clusters	
Lrt	DRSC06045	axon bundles split apart	
Pgant1	DRSC07095	axon bundles split apart	
CG13386	DRSC02260	axon bundles split apart	
mex1	DRSC11368	cell fragments present	
CG34136	DRSC01833	reduced axon outgrowth	
Sap30	DRSC19916	too many neurite branches	
galla-1	DRSC05987	beaded; swollen axons	
CG15283	DRSC01980	too many neurite branches	
CG11722	DRSC14358	beaded; swollen axons	
CG34367	DRSC02238	cell fragments present	
CG3473	DRSC01915	axon bundles split apart	
LysB	DRSC08673	axon bundles split apart	
